# Measured values from publication PMC4332865.
# By UniProt entry, the sequences of proteins in these tests, tags left out. Residues count along the entry.
# UniProt Q61701, 3-385: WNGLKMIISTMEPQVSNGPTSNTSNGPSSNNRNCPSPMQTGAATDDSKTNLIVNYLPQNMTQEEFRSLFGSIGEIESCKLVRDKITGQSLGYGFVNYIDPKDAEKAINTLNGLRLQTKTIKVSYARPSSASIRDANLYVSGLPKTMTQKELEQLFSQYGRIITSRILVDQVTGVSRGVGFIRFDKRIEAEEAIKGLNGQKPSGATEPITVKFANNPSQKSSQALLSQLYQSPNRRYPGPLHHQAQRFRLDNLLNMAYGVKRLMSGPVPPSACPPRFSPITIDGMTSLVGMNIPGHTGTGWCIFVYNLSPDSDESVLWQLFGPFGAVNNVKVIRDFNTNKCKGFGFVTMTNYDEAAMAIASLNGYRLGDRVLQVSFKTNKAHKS
# Key:
# GST-HuD (mouse) [1] = biological target: GST-HuD (mouse) (UniProt Q61701); test: EMSA; conditions: 2 uM protein, 2 nM RNA, 150 mM NaCl, 20 mM Tris (pH not stated), 1.5 mM MgCl2, 0.5 mM DTT, 0.5 ug/ul tRNA, 20 min, room temperature, 5% PAGE in TBE, recombinant protein, residues 3-385, protein details: N-terminal GST (pGEX-2T), label: biotin (unlabeled as competitor), probe letters rebuilt from the primers and the genome, part of a longer molecule
# GST-HuD (mouse) [2] = biological target: GST-HuD (mouse) (UniProt Q61701); test: competition with a labelled probe; conditions: 8 nM unlabeled vs 2 nM labeled Nova1 A, 150 mM NaCl, 20 mM Tris (pH not stated), 1.5 mM MgCl2, 0.5 mM DTT, 0.5 ug/ul tRNA, 20 min, room temperature, 5% PAGE in TBE, recombinant protein, residues 3-385, protein details: N-terminal GST (pGEX-2T), label: biotin (unlabeled as competitor), probe letters rebuilt from the primers and the genome, part of a longer molecule
Sequence,binding result (GST-HuD (mouse) [1]; little or no shift),binding result (GST-HuD (mouse) [2]; does not compete),"binding result (GST-HuD (mouse) [1]; smaller shift than B1, B3)",binding result (GST-HuD (mouse) [2]; competes),binding result (GST-HuD (mouse) [1]; among greatest shifts)
AUGACCAUCCUUUUCCUUACUAUGGUUAUUUCAUACUUCGGUUGCAUGAAGGCGGCGCCCAUGAAAGAAGUAAACGUCCACGGACAAGGCAACUUGGCCUACCCAGGUGUGCGGACCCAUGGGACUCUGGAGAGCGUGAAUGGGCCCAGGGCAGGUUCGAGAGGUCUGACGACGACAUCACUGGCUGACACUUUUGAGCACGUCAUCGAAGAGCUGCUGGAUGAGGACCAGAAGGUUCGGCCCAACGAAGAAAACCAUAAGGACGCGGACUUGUACACUUCCCGGGUGAUGCUCAGCAGUCAAGUGCCUUUGGAGCCUCCUCUACUCUUUCUGCUGGAGGAAUACAAAAAUUACCUGGAUGCCGCAAACAUGUCUAUGAGGGUUCGGCGCCACUCCGACCCUGCCCGCCGUGGGGAGCUGAGCGUGUGUGACAGUAUUAGCGAGUGGGUCACAGCGGCAGAUAAAAAGACUGCAGUGGACAUGUCUGGCGGGACGGUCACAGUCCUAGAGAAAGUCCCGGUAUCCAAAGGCCAACUGAAGCAGUAUUUCUACGAGACCAAGUGUAAUCCCAUGGGUUACACCAAGGAAGGCUGCAGGGGCAUAGACAAAAGGCACUGGAACUCGCAAUGCCGAACUACCCAAUCGUAUGUUCGGGCCCUUACUAUGGAUAGCAAAAAGAGAAUUGGCUGGCGAUUCAUAAGGAUAGACACUUCCUGUGUAUGUACACUGACCAUUAAAAGGGGAAGAUAG [Bdnf CDS probe],binds more weakly,no binding,–,–,–
CCUGCGGAGGCUAAGUGGAGCUGACAUACUAUUUCCUGGCAGUGCAGGAGGAAUUUCUGAGUGGCCAUCCUAAGGUCUAGGAUGGAGGUGGGGAAUGGUACUUGAGACAUUCCUAAAGGAAGGCUCGGAAGCACCCUUCAGAGCAGGCUCUGGAAUGAUGUGUCAAGUUGCUUAGGCCUUCUGCUUUAAGUGCCUACAUUACCUAACAGUGCUCAAGAGGUUCUCGAUUGGAGAACCACACUCAAAUCCAUUUAUAGCCUCCAUCCCAUUUCUAAAUAAUUGUGUAUAAAGUUGGAUUAACCUGGAGCAACUUUGGAUCCAAAUAUGGCACAGCAAUAAUGAUAUUAAUGCAGCAUGAUGGGAAAUGUUUGCUGUGAAGAGAAUUGAUUUGCUUUGAGCUUAGACUUCAGGAAGCCUAGGUUUUUUAUUUUUUUAUUUUUGAGACAUUUUGGUAAAAGGAAAAAAAGAAAACAAACAAACAAACAAACAAAACCAGAAAAAGCAUCAAAACUCAGGCAGAAUGAGCAAUGUCUGAAAGGGCUAGAAAAACAAGACAUAGCAAGGUGCUUUCACUGUGAAAGAGACAAGAACACAGGAGGAAAUAUUGCUUCAGUGAAGAGCACAGACGGCUCCUGCCAAUUUAUUACAAGAGUCCCGUCUGUACUUUACCCUUUGGGGUUAGAAGUCAAGUUGGAAGCCUGAAUGAAUGGACCCAAUGAGAACUAGUGUUAAGCCCAUUUCCCUAGUCAGGUUUUUUUCAAGCGUGAAUGUGUUAGUGGUUACUCUCCUGGGUUCCUGAGCAUCAGAAAAAAAAAAAAAAAGAGGCAAACAAUCGCUUCAUCUUAGGAGUG [Bdnf 3'UTR B2],–,–,binds,binds,–
CUCUUUCAGAAAACAGAUUAAAAAAACAAAAAACAAAAAAAAAAAAACAAAAAACAAAAACAAAAAUUGGAACCAAAACAUUCCGUUUACAUUUUAGACACUAAGUAUCUUCGUUCUUGUUAGUACUCUGUUUUACUGCUUUCGACUUCUGAUAGCGUUGGAAUUAAAACAAUGUCAAGGUGCUGUUGUCAUUGCUUUACUGGCGUAAGGGACGGGGAAUGGGAGGGGUAGAUUUCUGUUUGUUUUGUGUUUUAUUUUGUUUGUUUGUUUGUUUUGUUUUUUAGUUCCACCCGGAGUAGGGAUGGAGAAAAUUUCUUCACUAUCCAUUCUGGUUGAUAAAGCGUUACAUUUGUAUGUUGUAAAGAUGUUUGCAAAAUCCAAUCAGAUGACUGGAAAACAAAUAAAAAUUAAGGCAACUGAAUAAAAUGCUCACACUCCACUGCCCAUGAUGUAUCUCCCUGGUCCCCCUCAGCUCACUCUUCUGGCAUGGGUCAGGGAAAAUUGCUUUUAUUGGAAAGACCAGCAUUUGUUCAAAGCAUACUCUUUCCCUCCCUCCUCCCAUUUUGGUCCCUUCUUUUUGUUUUGUUUUAAGAAAGAAAAUUAAGUUGCGCGCUUUAAAAUAUUUUACUACUGCUACAAACAGAUGAACAAUGUGUGUCAUUUUAUGACACUCAUGGAAAACAGUGAUUUUUUUUUACCCUAAAGAAAAACAAAUAAAAAUAACCCAAAAUAUUCUUUUUUUAAAAGGCAUAAAUAUUGGGUAAAUUGUAAUAUGGCCUAACAGUGUUUGCAGAUAAAAGUUAUUGUAUACACCCAGAUACUUAGAUAAGAGCAGGGAUCCACACUGCCAUUGAAAUAGGACUGAAUGGCCCU [Bdnf 3'UTR B1],–,–,–,binds,binds
GAAAGGAAACAGAAGUGGACGUCCGCUGUGACUCAGGGAGUGAAGAUACCAUCAGCAAAUAGUUUCUUUUUUGUUCAUUCGUUCCUUUCGAGUUAGCCUGUCUUUUGGAAUACCACUGAAUAUGCUGUUUUUGAAAGACUUCAUGUAGCAUAGAUUGUUUUGUGCCGUUUACCAAAUUAACCUUUGUCAUCGUUUUUUAACCUAUUCAGGAAUGCUUGGAAUAUCUGCUCUAUGUUAACUUUUUGCAGCUUCAUUCUGAGAGACAUUAGUCAAACAAACAAAAGGAUCCCCAUCACAAUCUUACAGUACUGCAAGGGCCAGGUCUGUUAAUCGGCUUCACAGGAGACAUCAGCAAUUGUGUGGUCAGUGGCUGGCUCUCUUACCCACUAAGAUACAUCAUAGCUACAUGUUGGUGGUUUAUGUUGACCUGAGAUUUAUUUGUUAAAAUCUCUUCUUCGUUUCUGUUCGUUCUGGUUCUGUUCUGUUCUGUUCUGUUCUGUUUUGGUUUUAAAGUCUUGCUGUGGUCUCUUGUUGGCAGAAAUGUUUUAUGCAUGGCAGCAGGCCUGUUGCUUUUUUAUAGUGAUUCCCAUUGAAACUGUAAGUAAAUGUCUGUGGCCUUGUUCUCUCUAUGGUAAAGAUAUUAUUCACCAUGUAAAACAAGAAAAAAUAUUUAUUGUAUUUUAGUAUAUUUAUAUAAUUAUGUUAUUGAAAAAAUUGGCAUUAAAACUUAACCACAUCAGAAGCCUAUUGUAAAUACAGGUUCUAUUUAAGUGUACCAAUUAACAUAUAAUAUAUGUUUUAAAUAUAGAAUUUUUAAUGUUUUUAAAUAUAUUUUCAAA [Bdnf 3'UTR B3],–,–,–,binds,binds
UGGAUUUAUGUUGUAUAGAUUAUAUUGAGACAAAAUUAUCUAUUUGUAUAUAUACAUAACAGGGUAAAUUAUUCAGUUAAGAAAAAAUAAUUUUAUGAACUGCAUGUAUAAAUGAAGUUUAUACAGUACAGUGGUUCUACAAUCUAUUUAUUGGACAUAUCCAUGACCUGAAAGGAAACAGUCAUUUGCGCACAACUUUAAAAGUCUGCAUUACAUUCCUCGAUAAUGUUGUGGUUUGUUGCCGUUGCCAAGAAUUGAAAACAAAAAGUUUAAAAAAAAUAAUAAUAAAUUGCAUGCUGCUUUAAUUGUGAAUUGAUAAUAAACUGUCCCUCUUUCAGAAAACAGAUU [Bdnf 3'UTR A (short)],binds more weakly,no binding,–,–,–

# For some of these results: A negative result means that nothing was seen under these conditions. For some of these results: At least one verdict rests on a figure or table, not on a statement of the authors. For at least one entry, the source does not settle the construct or the ends of the probe. For some of these results: The comparison behind a weaker result is the experiment's own reference, which may not be listed here.
